# Results as given in the supplement of paper PMC8551327.
# This is one part of the list. Rule as the data show it: active = 1.25 or more and inactive = the rest. Many values rest on one well or one pass, so single values are uncertain.
# Test system: Kcc2-LUC knock-in mouse primary cortical neurons (Kcc2 promoter reporter)
# Assay: Kcc2 promoter-driven luciferase activity relative to vehicle control (fold of vehicle (ratio)); higher = stronger Kcc2 promoter activation (Kcc2 expression enhancer)
# Details: 100 nM; 48 h
row,Structure (SMILES),Kcc2 promoter-driven luciferase activity
1,NCCSSCc1ccccc1CSSCCN,inactive: 1.03
2,"O=C1C=C(NCCc2ccccc2)c2ccccc2C1=O [4-(2-phenylethylamino)naphthalene-1,2-dione]",inactive: 0.52
3,CC1=CC(=C(c2ccc(N)cc2)c2ccc(N)cc2)C=CC1=N [Basic Violet 14],inactive: 1.04
4,COc1ccc2cc(CN3CCC(C4CCN(Cc5ccc6cc(OC)ccc6c5)CC4)CC3)ccc2c1,inactive: 0.97
5,CC[C@H]1NC(=O)[C@@H](NC(=O)c2ncccc2O)[C@@H](C)OC(=O)[C@H](c2ccccc2)NC(=O)[C@@H]2CC(=O)CCN2C(=O)[C@H](Cc2ccccc2)N(C)C(=O)[C@@H]2CCCN2C1=O [Virginiamycin S1],inactive: 0.91
6,O=C(CC1(O)C(=O)Nc2c(Cl)ccc(Cl)c21)c1ccc(Cl)cc1Cl (stereo not given),inactive: 1.01
7,O=c1cccccc1O [Tropolone],inactive: 1.23
8,Cc1c2oc3c(C)ccc(C(=O)N[C@@H]4C(=O)N[C@H](C(C)C)C(=O)N5CCC[C@H]5C(=O)N(C)CC(=O)N(C)[C@@H](C(C)C)C(=O)O[C@@H]4C)c3nc-2c(C(=O)N[C@@H]2C(=O)N[C@H](C(C)C)C(=O)N3CCC[C@H]3C(=O)N(C)CC(=O)N(C)[C@@H](C(C)C)C(=O)O[C@@H]2C)c(N)c1=O [Dactinomycin],inactive: 1.1
9,O=C1c2cccc(NCCCNCCO)c2C(=O)c2cccc(NCCCNCCO)c21,inactive: 1.11
10,Clc1ccc(-c2c(C3=NCCCN3)nnn2-c2ccc(Cl)cc2)cc1,inactive: 0.47
11,CN(C)CCOC1(Cc2ccc(F)cc2)CCC(C(C)(C)C)CC1 (stereo not given),inactive: 0.964
12,Cc1nc(Nc2ccc(Cl)c(Cl)c2)sc1C(/C=C/c1ccc2c(c1)OCO2)=N/Nc1ccc([N+](=O)[O-])cc1[N+](=O)[O-],inactive: 0.84
13,CCCCS(=N)(=O)CCC(N)C(=O)O (stereo not given) [Buthionine Sulfoximine],inactive: 0.6
14,C[C@H](CSC(=O)c1ccccc1)C(=O)N1c2ccccc2C[C@H]1C(=O)O,inactive: 0.58
15,C[C@@H]1O[C@@H](CC(=O)O)CC2=C1C(=O)c1c(O)cccc1C2=O [Nanafrocin],inactive: 0.925
16,COC(=O)c1ccccc1NC(=O)C(=O)CC(=O)c1ccccc1NC1=CC(=O)C(=O)c2ccccc21,inactive: 0.69
17,Cc1cc(NCCCCCCCNc2cc(C)nc3cc(N)ccc23)c2ccc(N)cc2n1,inactive: 1
18,Cc1nnc(-n2c(O)cc(=O)n(-c3ccccc3)c2=S)nc1/C=C/c1ccc(N(C)C)cc1,inactive: 0.99
19,CC(C)c1ccc2nc3ccc(C(=O)NCCN(C)C)cn3c(=O)c2c1,inactive: 1.12
20,CO[C@H]1/C=C/O[C@@]2(C)Oc3c(C)c(O)c4c(O)c(cc(O)c4c3C2=O)NC(=O)/C(C)=C\C=C\[C@H](C)[C@H](O)[C@@H](C)[C@@H](O)[C@@H](C)[C@H](OC(C)=O)[C@@H]1C [Rifamycin Sodium],inactive: 0.84
21,"CCC1CN2CCc3cc(OC)c(OC)cc3C2CC1CC1c2cc(OC)c(OC)cc2CCN1C(=O)C1CCCN1C(=O)OCc1ccccc1 (stereo not given) [Emetine, benzyl ester]",inactive: 1.21
22,"Cc1c2c(cc3c1[nH]c1ccccc13)C=NCC2 [5-Methyl-4,6-dihydro-3h-pyrido[4,3-b]carbazole]",inactive: 1.15
23,O=C1/C(=C/c2cccs2)Oc2ccccc21 [(Z)-2-(2-Thenylidene)benzofuran-3(2H)-one],inactive: 1.15
24,CCCCOc1ccc(NC(N)=Nc2ccc(Cl)cc2)cc1 [1-(4-Butoxyphenyl)-2-(4-chlorophenyl)guanidine],inactive: 1.11
25,CCC1OC(=O)C(C)C(OC2CC(C)(O)C(O)C(C)O2)C(C)C(O)C(C)(O)CC(C)C(=O)C(C)C(O)C1C (stereo not given),inactive: 1.2
26,COc1ccc(-n2/c(=N/C(=S)N(C)C)ss/c2=N\C(=S)N(C)C)cc1,inactive: 0.89
27,O=C1C(=O)c2ccccc2C(O)=C1CC=C(Cl)Cl [dichloroallyl lawsone],active: 1.33
28,O=C(CC(=O)c1ccccc1NC1=Cc2ccccc2C(=O)C1=O)C(=O)NC1=C(Cl)C(=O)c2ccccc2C1=O,inactive: 1
29,O=C1Nc2c(Cl)cc(Cl)cc2C1=N/N=C/c1ccco1,inactive: 1.02
30,CC1(C)C[C@]23[C@@H]4COC(=O)[C@H]2CC[C@H]1[C@@H]3CC4=O [Quadrone],inactive: 0.42

# 3 structures out of the list, ordered by count of non-hydrogen atoms, falling:
row,Structure (SMILES),Kcc2 promoter-driven luciferase activity
8,Cc1c2oc3c(C)ccc(C(=O)N[C@@H]4C(=O)N[C@H](C(C)C)C(=O)N5CCC[C@H]5C(=O)N(C)CC(=O)N(C)[C@@H](C(C)C)C(=O)O[C@@H]4C)c3nc-2c(C(=O)N[C@@H]2C(=O)N[C@H](C(C)C)C(=O)N3CCC[C@H]3C(=O)N(C)CC(=O)N(C)[C@@H](C(C)C)C(=O)O[C@@H]2C)c(N)c1=O [Dactinomycin],inactive: 1.1
28,O=C(CC(=O)c1ccccc1NC1=Cc2ccccc2C(=O)C1=O)C(=O)NC1=C(Cl)C(=O)c2ccccc2C1=O,inactive: 1
1,NCCSSCc1ccccc1CSSCCN,inactive: 1.03
